Publication PMC7660923
These are yes or no findings as the source states them, for the method shown. Binding seen in cells or lysates may run through a third protein.

How the values were obtained:
[1] = target: mPR-GFP ΔC, mPRβ lacking the last 12 residues (Xenopus laevis); experiment: co-IP; GFP-tagged bait from lysates of about 70 mRNA-injected X. laevis oocytes (30 mM HEPES, 100 mM NaCl, pH 7.5, protease and phosphatase inhibitors; solubilised with 4% NP40 for 1 hour) captured on anti-GFP microbeads; western blot for APPL1, total Akt and GFP; oocytes untreated or treated with P4 (10^-5 M) over a time course
[2] = target: mPR-GFP ΔN (1-70), mPRβ lacking the cytosolic N-terminal domain (Xenopus laevis); experiment: as above

binding [1]: no binding
binding [2]: no binding
B1: endogenous APPL1 (Adapter protein containing Pleckstrin homology domain, Phosphotyrosine binding domain and Leucine zipper motif 1) of Xenopus oocytes (protein, UniProt A0A8J0PTU5 1-708)
chain: MLGTDKLPIEETLEDSPQTRSLLGVFEEDAAAISSYSNQLFHAMRRIYDAQNELSAATHLTSKLLKEYEKQRFPLGGDDEVMTSTLQQFSKVIDELSSCHAVLSTQLADAMMFPIGQFKERDLKEILTLKEVFQISSNDHDVAINRYSRLSKRRENEKTKFEATEDVYTARKKQHQTMMHYFCALNTIQYKKKTAILEPLLGYMQAQINFFKMGSENLNSQLEEFLSNIGSSVQSVRREMDNEVENMQQTIQDMEAASEPLYLPDPDPKKLPVNRNLTRKAGYLNIRNKTGLVSSSWDRHYFFTQGGNLMSQARGDVAGGLVMDIDNCTVMAVDSEDRRYCFQITSFDGKKAVILQAESKKDCEEWISTINNISKRIYLTDNPEETAARVNQSALEAVTPSPSFQQRHESMRPAVPSRPHARRTSSTGSVGSDSSALTALSLDSIVAPDTPIQFDIISPVSEDQSGQPRTPGQTGRRTNPFGESGEKSESEDSILHQLFIVRFLGSMEVKSDENTEVVYETMRQILAARAIHNIFRMTESHLLVTCDCLKLIDPQTQVTRLRFPLAHIVLYATHQENKRLFGFVLRTAGGRAEGRPVSVCYIFESNNEGEKICDSVGLAKQIALHAELDRRASDKQKEIEKVKEKQQKEISKQKQIEKDLEEQSRLIAASSRPNQPNAEGQFVVLSSSQSEESDVGEEGKKKQRESEA
